# Laboratory results from the supplement of paper PMC8728848.
# The other results are listed elsewhere or left out.
# B1: MXA PilAct-eGFP (Myxococcus xanthus), Q59589 (protein)
# chain: MRVSRFNPRNRGFTLIELMIVVAIIGILAAIAIPNFIKFQARSKQSEAKTNLKALYTAQKSFFSEKDRYSDFANEIGFAPERGNRYGYRVSAAAGDCEVRNAADLPVPAAGVPCISNDSFRFGANSAIDDPTPVVARFVPQGAAGWNTTLGVQPTIADCPNCNFFAGARGNADNEATFDDWVIAGFEGSGQVGPCSEAGNVASGTPYNTRNDVACDGAAQ
# Columns and labels:
# Assay in all cases: glycan array binding signal (z-score within array); higher = stronger binding
# Settings in all cases: glycan notation: IUPAC condensed, linker removed
# [1] = target: Neu5Ac(a2-3)Gal(b1-4)GlcNAc(b1-2)[Neu5Ac(a2-3)Gal(b1-4)GlcNAc(b1-4)]Man(a1-3)[GlcNAc(b1-4)][Neu5Ac(a2-3)Gal(b1-4)GlcNAc(b1-2)[Neu5Ac(a2-3)Gal(b1-4)GlcNAc(b1-6)]Man(a1-6)]Man(b1-4)GlcNAc(b1-4)GlcNAc
# Outline: (§1)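 Negative Z-scores can be read as non-binding. The Z-score is calculated within each array and then averaged across arrays of one protein sequence at different concentrations or buffers and across linkers. Arrays, 3228 in all, were curated from the Consortium for Functional Glycomics database and kept only where the protein sequence was available.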
# [2] = target: Neu5Ac(a2-3)Gal(b1-4)GlcNAc(b1-2)[Neu5Ac(a2-3)Gal(b1-4)GlcNAc(b1-4)]Man(a1-3)[GlcNAc(b1-4)][Neu5Ac(a2-3)Gal(b1-4)GlcNAc(b1-4)Man(a1-6)]Man(b1-4)GlcNAc(b1-4)GlcNAc
# Outline: as §1
# [3] = target: Neu5Ac(a2-3)Gal(b1-4)GlcNAc(b1-2)[Neu5Ac(a2-3)Gal(b1-4)GlcNAc(b1-6)]Man(a1-6)[Neu5Ac(a2-3)Gal(b1-4)GlcNAc(b1-2)Man(a1-3)][GlcNAc(b1-4)]Man(b1-4)GlcNAc(b1-4)GlcNAc
# Outline: as §1
# [4] = target: Neu5Ac(a2-3)Gal(b1-4)GlcNAc(b1-3)Gal
# Outline: as §1
# [5] = target: Neu5Ac(a2-3)Gal(b1-4)GlcNAc(b1-3)Gal(b1-3)GlcNAc
# Outline: as §1
# [6] = target: Neu5Ac(a2-3)Gal(b1-4)GlcNAc(b1-3)Gal(b1-4)GlcNAc
# Outline: as §1
# [7] = target: Neu5Ac(a2-3)Gal(b1-4)GlcNAc(b1-3)Gal(b1-4)GlcNAc(b1-2)Man(a1-3)[Neu5Ac(a2-3)Gal(b1-4)GlcNAc(b1-3)Gal(b1-4)GlcNAc(b1-2)Man(a1-6)]Man(b1-4)GlcNAc(b1-4)GlcNAc
# Outline: as §1
# [8] = target: Neu5Ac(a2-3)Gal(b1-4)GlcNAc(b1-3)Gal(b1-4)GlcNAc(b1-3)Gal(b1-4)GlcNAc
# Outline: as §1
# [9] = target: Neu5Ac(a2-3)Gal(b1-4)GlcNAc(b1-3)Gal(b1-4)GlcNAc(b1-3)Gal(b1-4)GlcNAc(b1-2)Man(a1-3)[Neu5Ac(a2-3)Gal(b1-4)GlcNAc(b1-3)Gal(b1-4)GlcNAc(b1-3)Gal(b1-4)GlcNAc(b1-2)Man(a1-6)]GalNAc
# Outline: as §1
# [10] = target: Neu5Ac(a2-3)Gal(b1-4)GlcNAc(b1-3)Gal(b1-4)GlcNAc(b1-3)GalNAc
# Outline: as §1
# [11] = target: Neu5Ac(a2-3)Gal(b1-4)GlcNAc(b1-3)Gal(b1-4)GlcNAc(b1-3)[Neu5Ac(a2-3)Gal(b1-4)GlcNAc(b1-3)Gal(b1-4)GlcNAc(b1-6)]GalNAc
# Outline: as §1
# [12] = target: Neu5Ac(a2-3)Gal(b1-4)GlcNAc(b1-3)Gal(b1-4)GlcNAc(b1-6)[Gal(b1-3)]GalNAc
# Outline: as §1
# [13] = target: Neu5Ac(a2-3)Gal(b1-4)GlcNAc(b1-3)Gal(b1-4)[Fuc(a1-3)]GlcNAc
# Outline: as §1
# [14] = target: Neu5Ac(a2-3)Gal(b1-4)GlcNAc(b1-3)GalNAc
# Outline: as §1
# [15] = target: Neu5Ac(a2-3)Gal(b1-4)GlcNAc(b1-3)[Neu5Ac(a2-3)Gal(b1-4)GlcNAc(b1-6)]GalNAc
# Outline: as §1
# [16] = target: Neu5Ac(a2-3)Gal(b1-4)GlcNAc(b1-6)GalNAc
# Outline: as §1
# [17] = target: Neu5Ac(a2-3)Gal(b1-4)GlcNAc(b1-6)[Gal(b1-3)]GalNAc
# Outline: as §1
# [18] = target: Neu5Ac(a2-3)Gal(b1-4)GlcNAc(b1-6)[Neu5Ac(a2-3)Gal(b1-3)]GalNAc
# Outline: as §1
# [19] = target: Neu5Ac(a2-3)Gal(b1-4)GlcNAc6S
# Outline: as §1
# [20] = target: Neu5Ac(a2-3)Gal(b1-4)[Fuc(a1-3)]GlcNAc
# Outline: as §1
# [21] = target: Neu5Ac(a2-3)Gal(b1-4)[Fuc(a1-3)]GlcNAc(b1-2)Man
# Outline: as §1
# [22] = target: Neu5Ac(a2-3)Gal(b1-4)[Fuc(a1-3)]GlcNAc(b1-3)Gal
# Outline: as §1
# [23] = target: Neu5Ac(a2-3)Gal(b1-4)[Fuc(a1-3)]GlcNAc(b1-3)Gal(b1-4)GlcNAc
# Outline: as §1
# [24] = target: Neu5Ac(a2-3)Gal(b1-4)[Fuc(a1-3)]GlcNAc(b1-3)Gal(b1-4)[Fuc(a1-3)]GlcNAc(b1-3)Gal(b1-4)[Fuc(a1-3)]GlcNAc
# Outline: as §1
# [25] = target: Neu5Ac(a2-3)Gal(b1-4)[Fuc(a1-3)]GlcNAc(b1-3)GalNAc
# Outline: as §1
# [26] = target: Neu5Ac(a2-3)Gal(b1-4)[Fuc(a1-3)]GlcNAc(b1-6)[Gal(b1-3)]GalNAc
# Outline: as §1
# [27] = target: Neu5Ac(a2-3)Gal(b1-4)[Fuc(a1-3)]GlcNAc(b1-6)[Neu5Ac(a2-3)Gal(b1-3)]GalNAc
# Outline: as §1
# [28] = target: Neu5Ac(a2-3)Gal(b1-4)[Fuc(a1-3)]GlcNAc6S
# Outline: as §1
# [29] = target: Neu5Ac(a2-3)Gal6S(b1-4)GlcNAc
# Outline: as §1
# [30] = target: Neu5Ac(a2-3)Gal6S(b1-4)[Fuc(a1-3)]GlcNAc
# Outline: as §1
# Neu5Ac(a2-3)GalNAc = target: Neu5Ac(a2-3)GalNAc
# Outline: as §1
# [31] = target: Neu5Ac(a2-3)GalNAc(b1-4)GlcNAc
# Outline: as §1
# [32] = target: Neu5Ac(a2-3)[GalNAc(b1-4)]Gal(b1-4)Glc
# Outline: as §1
# [33] = target: Neu5Ac(a2-3)[GalNAc(b1-4)]Gal(b1-4)GlcNAc
# Outline: as §1
# [34] = target: Neu5Ac(a2-3)[GalNAc(b1-4)]Gal(b1-4)GlcNAc(b1-3)GalNAc
# Outline: as §1
# [35] = target: Neu5Ac(a2-3)[Neu5Ac(a2-6)]GalNAc
# Outline: as §1
# Neu5Ac(a2-6)Gal = target: Neu5Ac(a2-6)Gal
# Outline: as §1
# [36] = target: Neu5Ac(a2-6)Gal(b1-3)GlcNAc(b1-3)[Gal(b1-4)GlcNAc(b1-6)]Gal(b1-4)Glc
# Outline: as §1
# Neu5Ac(a2-6)Gal(b1-4)Glc = target: Neu5Ac(a2-6)Gal(b1-4)Glc
# Outline: as §1
# [37] = target: Neu5Ac(a2-6)Gal(b1-4)GlcNAc
# Outline: as §1
# [38] = target: Neu5Ac(a2-6)Gal(b1-4)GlcNAc(b1-2)Man
# Outline: as §1
# [39] = target: Neu5Ac(a2-6)Gal(b1-4)GlcNAc(b1-2)Man(a1-3)Man(b1-4)GlcNAc(b1-4)GlcNAc
# Outline: as §1
# [40] = target: Neu5Ac(a2-6)Gal(b1-4)GlcNAc(b1-2)Man(a1-3)[Gal(b1-4)GlcNAc(b1-2)Man(a1-6)]Man(b1-4)GlcNAc(b1-4)GlcNAc
# Outline: as §1
# [41] = target: Neu5Ac(a2-6)Gal(b1-4)GlcNAc(b1-2)Man(a1-3)[GlcNAc(b1-2)Man(a1-6)]Man(b1-4)GlcNAc(b1-4)GlcNAc
# Outline: as §1
# [42] = target: Neu5Ac(a2-6)Gal(b1-4)GlcNAc(b1-2)Man(a1-3)[GlcNAc(b1-4)][Neu5Ac(a2-6)Gal(b1-4)GlcNAc(b1-2)Man(a1-6)]Man(b1-4)GlcNAc(b1-4)GlcNAc
# Outline: as §1
binder,measurement,setting,value
B1,glycan array binding signal (z-score),[1],0.702
same,glycan array binding signal (z-score),[2],0.516
same,glycan array binding signal (z-score),[3],0.453
same,glycan array binding signal (z-score),[4],-0.221
same,glycan array binding signal (z-score),[5],-0.899
same,glycan array binding signal (z-score),[6],-0.764
same,glycan array binding signal (z-score),[7],-0.586
same,glycan array binding signal (z-score),[8],0.34
same,glycan array binding signal (z-score),[9],-0.014
same,glycan array binding signal (z-score),[10],-0.775
same,glycan array binding signal (z-score),[11],-0.452
same,glycan array binding signal (z-score),[12],-0.85
same,glycan array binding signal (z-score),[13],-0.755
same,glycan array binding signal (z-score),[14],-1.47
same,glycan array binding signal (z-score),[15],-0.792
same,glycan array binding signal (z-score),[16],-0.341
same,glycan array binding signal (z-score),[17],-0.657
same,glycan array binding signal (z-score),[18],1.55
same,glycan array binding signal (z-score),[19],-0.008
same,glycan array binding signal (z-score),[20],-0.025
same,glycan array binding signal (z-score),[21],2.06
same,glycan array binding signal (z-score),[22],-0.773
same,glycan array binding signal (z-score),[23],-0.9
same,glycan array binding signal (z-score),[24],-0.246
same,glycan array binding signal (z-score),[25],-1.35
same,glycan array binding signal (z-score),[26],0.753
same,glycan array binding signal (z-score),[27],0.345
same,glycan array binding signal (z-score),[28],-0.607
same,glycan array binding signal (z-score),[29],0.862
same,glycan array binding signal (z-score),[30],-0.423
same,glycan array binding signal (z-score),Neu5Ac(a2-3)GalNAc,-0.502
same,glycan array binding signal (z-score),[31],-0.67
same,glycan array binding signal (z-score),[32],0.178
same,glycan array binding signal (z-score),[33],-0.027
same,glycan array binding signal (z-score),[34],0.398
same,glycan array binding signal (z-score),[35],-0.688
same,glycan array binding signal (z-score),Neu5Ac(a2-6)Gal,0.752
same,glycan array binding signal (z-score),[36],1.26
same,glycan array binding signal (z-score),Neu5Ac(a2-6)Gal(b1-4)Glc,0.005
same,glycan array binding signal (z-score),[37],0.132
same,glycan array binding signal (z-score),[38],-0.318
same,glycan array binding signal (z-score),[39],-0.569
same,glycan array binding signal (z-score),[40],0.401
same,glycan array binding signal (z-score),[41],-0.515
same,glycan array binding signal (z-score),[42],-1.03

# A second format for some results above:
binder	measurement	setting	value
B1	glycan array binding signal (z-score)	[6]	-0.764
same	glycan array binding signal (z-score)	[7]	-0.586
